Source: article PMC8575775, “Structural basis of the interaction between SETD2 methyltransferase and hnRNP L paralogs for governing co-transcriptional splicing” (Nature Communications, 2021)
These are yes or no findings as the source states them, for the method shown. Binding seen in cells or lysates may run through a third protein. Binding calls can cover weak binding; strength is not graded here.

The chains behind the UniProt entries cited, without tags or fusion partners. Where a name states a change or a piece, a line headed by the entry shows the natural chain unless it says otherwise.
UniProt Q9BYW2: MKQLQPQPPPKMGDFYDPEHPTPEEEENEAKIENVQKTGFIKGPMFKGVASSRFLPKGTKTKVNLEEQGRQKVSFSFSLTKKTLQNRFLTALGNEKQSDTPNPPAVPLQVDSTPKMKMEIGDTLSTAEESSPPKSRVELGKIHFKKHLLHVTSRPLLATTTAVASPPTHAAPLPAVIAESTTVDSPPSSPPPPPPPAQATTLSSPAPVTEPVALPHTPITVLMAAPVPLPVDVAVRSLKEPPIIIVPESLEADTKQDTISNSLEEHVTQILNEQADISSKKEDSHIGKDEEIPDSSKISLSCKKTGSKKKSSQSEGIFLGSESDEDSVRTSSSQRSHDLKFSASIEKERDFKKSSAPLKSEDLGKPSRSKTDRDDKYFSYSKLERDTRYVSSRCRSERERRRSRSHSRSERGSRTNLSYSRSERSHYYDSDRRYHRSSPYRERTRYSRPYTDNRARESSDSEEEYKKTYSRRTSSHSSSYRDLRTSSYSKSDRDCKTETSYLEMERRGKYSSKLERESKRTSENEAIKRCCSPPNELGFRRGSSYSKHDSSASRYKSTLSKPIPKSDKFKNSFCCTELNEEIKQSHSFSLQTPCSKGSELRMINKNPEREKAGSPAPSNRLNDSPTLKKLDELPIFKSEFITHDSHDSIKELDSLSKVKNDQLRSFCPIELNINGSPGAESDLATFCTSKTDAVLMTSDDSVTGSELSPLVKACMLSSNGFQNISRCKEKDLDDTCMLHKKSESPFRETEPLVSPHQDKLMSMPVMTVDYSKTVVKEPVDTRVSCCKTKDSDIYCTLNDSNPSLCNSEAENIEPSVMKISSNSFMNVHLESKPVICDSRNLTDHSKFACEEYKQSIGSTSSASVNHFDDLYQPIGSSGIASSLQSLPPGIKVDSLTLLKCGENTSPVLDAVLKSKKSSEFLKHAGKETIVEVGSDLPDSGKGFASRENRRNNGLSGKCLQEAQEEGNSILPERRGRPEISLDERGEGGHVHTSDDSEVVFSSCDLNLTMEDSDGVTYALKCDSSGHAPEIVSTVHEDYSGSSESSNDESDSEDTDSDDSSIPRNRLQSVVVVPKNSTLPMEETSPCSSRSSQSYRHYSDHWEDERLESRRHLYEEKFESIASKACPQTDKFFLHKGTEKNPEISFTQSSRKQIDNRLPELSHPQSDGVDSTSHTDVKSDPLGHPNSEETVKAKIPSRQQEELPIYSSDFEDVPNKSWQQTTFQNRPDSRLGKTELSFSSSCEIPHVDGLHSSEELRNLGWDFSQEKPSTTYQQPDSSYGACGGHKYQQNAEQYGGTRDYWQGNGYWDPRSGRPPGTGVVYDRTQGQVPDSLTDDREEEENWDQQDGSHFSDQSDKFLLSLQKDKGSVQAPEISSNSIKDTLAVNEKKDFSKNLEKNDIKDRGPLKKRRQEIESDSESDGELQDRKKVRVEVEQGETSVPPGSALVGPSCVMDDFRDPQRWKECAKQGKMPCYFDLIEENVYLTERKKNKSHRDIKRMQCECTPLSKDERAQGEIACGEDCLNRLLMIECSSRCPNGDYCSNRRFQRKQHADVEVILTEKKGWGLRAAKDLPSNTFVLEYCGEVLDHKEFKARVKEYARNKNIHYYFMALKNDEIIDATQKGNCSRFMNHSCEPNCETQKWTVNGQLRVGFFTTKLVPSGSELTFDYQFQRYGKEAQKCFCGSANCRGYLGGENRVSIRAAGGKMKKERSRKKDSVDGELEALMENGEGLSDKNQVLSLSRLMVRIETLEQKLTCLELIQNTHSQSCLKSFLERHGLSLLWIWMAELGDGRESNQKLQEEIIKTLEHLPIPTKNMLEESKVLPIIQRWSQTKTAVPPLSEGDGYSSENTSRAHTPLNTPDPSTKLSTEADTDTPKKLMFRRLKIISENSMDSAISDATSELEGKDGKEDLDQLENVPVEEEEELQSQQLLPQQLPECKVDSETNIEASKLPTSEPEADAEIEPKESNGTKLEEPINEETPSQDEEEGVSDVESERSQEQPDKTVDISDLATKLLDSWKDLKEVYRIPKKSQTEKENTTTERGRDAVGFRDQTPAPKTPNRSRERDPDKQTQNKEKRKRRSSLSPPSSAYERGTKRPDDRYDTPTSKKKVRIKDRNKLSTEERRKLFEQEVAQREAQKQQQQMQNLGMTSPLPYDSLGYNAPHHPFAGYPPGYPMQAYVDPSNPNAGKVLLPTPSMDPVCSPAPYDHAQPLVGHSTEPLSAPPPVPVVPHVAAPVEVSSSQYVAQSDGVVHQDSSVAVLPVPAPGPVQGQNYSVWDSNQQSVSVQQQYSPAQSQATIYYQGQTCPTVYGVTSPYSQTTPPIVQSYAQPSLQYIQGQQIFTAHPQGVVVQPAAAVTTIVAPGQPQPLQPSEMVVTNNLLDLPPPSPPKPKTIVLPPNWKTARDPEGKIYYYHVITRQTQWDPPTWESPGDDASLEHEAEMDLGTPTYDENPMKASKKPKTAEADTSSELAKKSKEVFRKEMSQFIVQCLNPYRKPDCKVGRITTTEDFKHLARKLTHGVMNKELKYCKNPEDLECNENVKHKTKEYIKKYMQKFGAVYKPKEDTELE

Tests used:
[1] = biological target: Halo-SETD2CΔSHI 5 (human) (UniProt Q9BYW2); assay: pull-down; Halo-tagged bait expressed in 293T cells, captured from extracts on Magne HaloTag beads (wash 300 mM NaCl), eluted with TEV protease; endogenous preys seen by western blotting and silver staining; for SETD2CΔSRI with and without RNase treatment
[2] = biological target: Halo-SETD2CΔSHI 4 (human) (UniProt Q9BYW2); assay: as above

B1: hnRNP L (endogenous) (protein, UniProt P14866 1-589)
chain: MSRRLLPRAEKRRRRLEQRQQPDEQRRRSGAMVKMAAAGGGGGGGRYYGGGSEGGRAPKRLKTDNAGDQHGGGGGGGGGAGAAGGGGGGENYDDPHKTPASPVVHIRGLIDGVVEADLVEALQEFGPISYVVVMPKKRQALVEFEDVLGACNAVNYAADNQIYIAGHPAFVNYSTSQKISRPGDSDDSRSVNSVLLFTILNPIYSITTDVLYTICNPCGPVQRIVIFRKNGVQAMVEFDSVQSAQRAKASLNGADIYSGCCTLKIEYAKPTRLNVFKNDQDTWDYTNPNLSGQGDPGSNPNKRQRQPPLLGDHPAEYGGPHGGYHSHYHDEGYGPPPPHYEGRRMGPPVGGHRRGPSRYGPQYGHPPPPPPPPEYGPHADSPVLMVYGLDQSKMNCDRVFNVFCLYGNVEKVKFMKSKPGAAMVEMADGYAVDRAITHLNNNFMFGQKLNVCVSKQPAIMPGQSYGLEDGSCSYKDFSESRNNRFSTPEQAAKNRIQHPSNVLHFFNAPLEVTEENFFEICDELGVKRPSSVKVFSGKSERSSSGLLEWESKSDALETLGFLNHYQMKNPNGPYPYTLKLCFSTAQHAS
- binding [1]: binds
- binding [2]: binds
